These are yes or no findings as the source states them, for the method shown. Binding seen in cells or lysates may run through a third protein. A yes stands for co-enrichment or nearness to the bait. Other partners may have been found.
B1: solute carrier family 12, member 5 protein (SLC12A5), potassium-chloride cotransporter KCC2 (protein, UniProt Q63633 1-1139)
chain: MSRRFTVTSLPPAASAASADPESRRHSVADPRRLPREDVKGDGNPKESSPFINSTDTEKGREYDGRNMALFEEEMDTSPMVSSLLSGLANYTNLPQGSKEHEEAENNEGGKKKPVQAPRMGTFMGVYLPCLQNIFGVILFLRLTWVVGIAGIMESFCMVFICCSCTMLTAISMSAIATNGVVPAGGSYYMISRSLGPEFGGAVGLCFYLGTTFAGAMYILGTIEILLAYLFPAMAIFKAEDASGEAAAMLNNMRVYGTCVLTCMATVVFVGVKYVNKFALVFLGCVILSILAIYAGVIKSAFDPPNFPICLLGNRTLSRHGFDVCAKLAWEGNETVTTRLWGLFCSSRLLNATCDEYFTRNNVTEIQGIPGAASGLIKENLWSSYLTKGVIVERRGMPSVGLADGTPVDMDHPYVFSDMTSYFTLLVGIYFPSVTGIMAGSNRSGDLRDAQKSIPTGTILAIATTSAVYISSVVLFGACIEGVVLRDKFGEAVNGNLVVGTLAWPSPWVIVIGSFFSTCGAGLQSLTGAPRLLQAISRDGIVPFLQVFGHGKANGEPTWALLLTACICEIGILIASLDEVAPILSMFFLMCYMFVNLACAVQTLLRTPNWRPRFRYYHWTLSFLGMSLCLALMFICSWYYALVAMLIAGLIYKYIEYRGAEKEWGDGIRGLSLSAARYALLRLEEGPPHTKNWRPQLLVLVRVDQDQNVVHPQLLSLTSQLKAGKGLTIVGSVLEGTFLDNHPQAQRAEESIRRLMEAEKVKGFCQVVISSNLRDGVSHLIQSGGLGGLQHNTVLVGWPRNWRQKEDHQTWRNFIELVRETTAGHLALLVTKNVSMFPGNPERFSEGSIDVWWIVHDGGMLMLLPFLLRHHKVWRKCKMRIFTVAQMDDNSIQMKKDLTTFLYHLRITAEVEVVEMHESDISAYTYEKTLVMEQRSQILKQMHLTKNEREREIQSITDESRGSIRRKNPANTRLRLNVPEETACDNEEKPEEEVQLIHDQSAPSCPSSSPSPGEEPEGEGETDPEKVHLTWTKDKSAAQKNKGPSPVSSEGIKDFFSMKPEWENLNQSNVRRMHTAVRLNEVIVNKSRDAKLVLLNMPGPPRNRNGDENYMEFLEVLTEQLDRVMLVRGGGREVITIYS

The chains behind the UniProt entries cited, without tags or fusion partners. Residues count along the entry.
UniProt Q9Z0U4, residues 20-960: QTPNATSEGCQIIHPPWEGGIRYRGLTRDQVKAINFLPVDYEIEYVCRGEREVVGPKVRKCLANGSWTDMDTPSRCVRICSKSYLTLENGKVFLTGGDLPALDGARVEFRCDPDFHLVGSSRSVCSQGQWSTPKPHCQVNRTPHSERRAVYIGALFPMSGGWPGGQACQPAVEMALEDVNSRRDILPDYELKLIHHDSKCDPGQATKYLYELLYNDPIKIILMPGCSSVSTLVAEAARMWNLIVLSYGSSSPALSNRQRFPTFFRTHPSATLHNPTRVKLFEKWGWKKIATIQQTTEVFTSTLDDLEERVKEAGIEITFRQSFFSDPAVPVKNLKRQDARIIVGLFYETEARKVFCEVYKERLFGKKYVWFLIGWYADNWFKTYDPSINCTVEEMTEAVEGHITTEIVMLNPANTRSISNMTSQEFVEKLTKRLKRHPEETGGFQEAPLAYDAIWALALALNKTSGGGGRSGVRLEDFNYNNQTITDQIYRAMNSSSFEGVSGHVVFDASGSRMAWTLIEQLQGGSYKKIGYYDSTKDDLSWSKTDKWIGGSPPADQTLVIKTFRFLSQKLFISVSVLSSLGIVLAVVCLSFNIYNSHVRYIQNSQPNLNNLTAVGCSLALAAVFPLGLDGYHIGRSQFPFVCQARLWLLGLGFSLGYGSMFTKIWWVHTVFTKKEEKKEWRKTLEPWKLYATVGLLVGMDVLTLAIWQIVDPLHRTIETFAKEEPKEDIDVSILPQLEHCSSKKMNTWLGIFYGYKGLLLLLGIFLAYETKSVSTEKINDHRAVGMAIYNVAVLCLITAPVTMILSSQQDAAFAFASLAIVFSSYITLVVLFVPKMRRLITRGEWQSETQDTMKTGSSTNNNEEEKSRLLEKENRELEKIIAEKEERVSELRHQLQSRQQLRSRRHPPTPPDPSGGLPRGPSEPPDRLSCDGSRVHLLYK
UniProt Q9QUL6: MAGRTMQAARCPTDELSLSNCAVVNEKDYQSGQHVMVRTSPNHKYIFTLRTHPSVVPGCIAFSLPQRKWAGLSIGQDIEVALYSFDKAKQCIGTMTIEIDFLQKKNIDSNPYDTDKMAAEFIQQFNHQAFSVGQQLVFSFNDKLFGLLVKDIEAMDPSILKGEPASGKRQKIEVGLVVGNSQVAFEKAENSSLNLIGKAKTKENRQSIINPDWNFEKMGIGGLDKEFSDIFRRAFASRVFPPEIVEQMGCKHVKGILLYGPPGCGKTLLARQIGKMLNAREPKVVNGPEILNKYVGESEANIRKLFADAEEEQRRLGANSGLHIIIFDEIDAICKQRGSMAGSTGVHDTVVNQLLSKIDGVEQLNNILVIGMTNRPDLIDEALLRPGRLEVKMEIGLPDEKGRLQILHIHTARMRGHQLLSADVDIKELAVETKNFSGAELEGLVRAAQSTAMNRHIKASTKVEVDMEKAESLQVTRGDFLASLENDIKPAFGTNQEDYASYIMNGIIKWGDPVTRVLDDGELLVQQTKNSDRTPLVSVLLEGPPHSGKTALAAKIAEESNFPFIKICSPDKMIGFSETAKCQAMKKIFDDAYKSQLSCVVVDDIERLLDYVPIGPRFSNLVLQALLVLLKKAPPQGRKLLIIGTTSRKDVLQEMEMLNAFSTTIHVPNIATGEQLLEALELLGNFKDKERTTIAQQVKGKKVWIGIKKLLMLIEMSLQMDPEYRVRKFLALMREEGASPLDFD

Molecular target: GABAB receptor subunit GABABR1 (rat (endogenous in adult cortex)) (UniProt Q9Z0U4)
Experiment: affinity purification with mass spectrometry; sheep anti-GABABR1 antibody on synaptic membranes of adult rat cortex solubilised in 50 mM Tris-HCl pH 7.4, 1% sodium deoxycholate; Protein G Sepharose, 4°C; gel bands, LC-MS/MS; sheep IgG control; three independent isolates

Row | Molecule | binding
1 | NEM-sensitive fusion protein (from UniProt Q9QUL6 1-744) | binds
2 | B1 | binds
